Reference: the supplement of paper PMC10849652
The other results are listed elsewhere or left out.

Chains of the proteins cited; added tags and fusions are not shown. Lines headed by an entry give the natural chain unless they say otherwise; changes in a name come on top.
UniProt Q9NP77: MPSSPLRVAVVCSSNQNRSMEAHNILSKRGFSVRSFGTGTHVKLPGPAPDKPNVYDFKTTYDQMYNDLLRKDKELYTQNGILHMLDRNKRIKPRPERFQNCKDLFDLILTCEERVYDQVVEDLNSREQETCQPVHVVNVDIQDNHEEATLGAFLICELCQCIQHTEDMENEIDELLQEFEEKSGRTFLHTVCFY
UniProt Q6ZRS2, whole entry, looked up: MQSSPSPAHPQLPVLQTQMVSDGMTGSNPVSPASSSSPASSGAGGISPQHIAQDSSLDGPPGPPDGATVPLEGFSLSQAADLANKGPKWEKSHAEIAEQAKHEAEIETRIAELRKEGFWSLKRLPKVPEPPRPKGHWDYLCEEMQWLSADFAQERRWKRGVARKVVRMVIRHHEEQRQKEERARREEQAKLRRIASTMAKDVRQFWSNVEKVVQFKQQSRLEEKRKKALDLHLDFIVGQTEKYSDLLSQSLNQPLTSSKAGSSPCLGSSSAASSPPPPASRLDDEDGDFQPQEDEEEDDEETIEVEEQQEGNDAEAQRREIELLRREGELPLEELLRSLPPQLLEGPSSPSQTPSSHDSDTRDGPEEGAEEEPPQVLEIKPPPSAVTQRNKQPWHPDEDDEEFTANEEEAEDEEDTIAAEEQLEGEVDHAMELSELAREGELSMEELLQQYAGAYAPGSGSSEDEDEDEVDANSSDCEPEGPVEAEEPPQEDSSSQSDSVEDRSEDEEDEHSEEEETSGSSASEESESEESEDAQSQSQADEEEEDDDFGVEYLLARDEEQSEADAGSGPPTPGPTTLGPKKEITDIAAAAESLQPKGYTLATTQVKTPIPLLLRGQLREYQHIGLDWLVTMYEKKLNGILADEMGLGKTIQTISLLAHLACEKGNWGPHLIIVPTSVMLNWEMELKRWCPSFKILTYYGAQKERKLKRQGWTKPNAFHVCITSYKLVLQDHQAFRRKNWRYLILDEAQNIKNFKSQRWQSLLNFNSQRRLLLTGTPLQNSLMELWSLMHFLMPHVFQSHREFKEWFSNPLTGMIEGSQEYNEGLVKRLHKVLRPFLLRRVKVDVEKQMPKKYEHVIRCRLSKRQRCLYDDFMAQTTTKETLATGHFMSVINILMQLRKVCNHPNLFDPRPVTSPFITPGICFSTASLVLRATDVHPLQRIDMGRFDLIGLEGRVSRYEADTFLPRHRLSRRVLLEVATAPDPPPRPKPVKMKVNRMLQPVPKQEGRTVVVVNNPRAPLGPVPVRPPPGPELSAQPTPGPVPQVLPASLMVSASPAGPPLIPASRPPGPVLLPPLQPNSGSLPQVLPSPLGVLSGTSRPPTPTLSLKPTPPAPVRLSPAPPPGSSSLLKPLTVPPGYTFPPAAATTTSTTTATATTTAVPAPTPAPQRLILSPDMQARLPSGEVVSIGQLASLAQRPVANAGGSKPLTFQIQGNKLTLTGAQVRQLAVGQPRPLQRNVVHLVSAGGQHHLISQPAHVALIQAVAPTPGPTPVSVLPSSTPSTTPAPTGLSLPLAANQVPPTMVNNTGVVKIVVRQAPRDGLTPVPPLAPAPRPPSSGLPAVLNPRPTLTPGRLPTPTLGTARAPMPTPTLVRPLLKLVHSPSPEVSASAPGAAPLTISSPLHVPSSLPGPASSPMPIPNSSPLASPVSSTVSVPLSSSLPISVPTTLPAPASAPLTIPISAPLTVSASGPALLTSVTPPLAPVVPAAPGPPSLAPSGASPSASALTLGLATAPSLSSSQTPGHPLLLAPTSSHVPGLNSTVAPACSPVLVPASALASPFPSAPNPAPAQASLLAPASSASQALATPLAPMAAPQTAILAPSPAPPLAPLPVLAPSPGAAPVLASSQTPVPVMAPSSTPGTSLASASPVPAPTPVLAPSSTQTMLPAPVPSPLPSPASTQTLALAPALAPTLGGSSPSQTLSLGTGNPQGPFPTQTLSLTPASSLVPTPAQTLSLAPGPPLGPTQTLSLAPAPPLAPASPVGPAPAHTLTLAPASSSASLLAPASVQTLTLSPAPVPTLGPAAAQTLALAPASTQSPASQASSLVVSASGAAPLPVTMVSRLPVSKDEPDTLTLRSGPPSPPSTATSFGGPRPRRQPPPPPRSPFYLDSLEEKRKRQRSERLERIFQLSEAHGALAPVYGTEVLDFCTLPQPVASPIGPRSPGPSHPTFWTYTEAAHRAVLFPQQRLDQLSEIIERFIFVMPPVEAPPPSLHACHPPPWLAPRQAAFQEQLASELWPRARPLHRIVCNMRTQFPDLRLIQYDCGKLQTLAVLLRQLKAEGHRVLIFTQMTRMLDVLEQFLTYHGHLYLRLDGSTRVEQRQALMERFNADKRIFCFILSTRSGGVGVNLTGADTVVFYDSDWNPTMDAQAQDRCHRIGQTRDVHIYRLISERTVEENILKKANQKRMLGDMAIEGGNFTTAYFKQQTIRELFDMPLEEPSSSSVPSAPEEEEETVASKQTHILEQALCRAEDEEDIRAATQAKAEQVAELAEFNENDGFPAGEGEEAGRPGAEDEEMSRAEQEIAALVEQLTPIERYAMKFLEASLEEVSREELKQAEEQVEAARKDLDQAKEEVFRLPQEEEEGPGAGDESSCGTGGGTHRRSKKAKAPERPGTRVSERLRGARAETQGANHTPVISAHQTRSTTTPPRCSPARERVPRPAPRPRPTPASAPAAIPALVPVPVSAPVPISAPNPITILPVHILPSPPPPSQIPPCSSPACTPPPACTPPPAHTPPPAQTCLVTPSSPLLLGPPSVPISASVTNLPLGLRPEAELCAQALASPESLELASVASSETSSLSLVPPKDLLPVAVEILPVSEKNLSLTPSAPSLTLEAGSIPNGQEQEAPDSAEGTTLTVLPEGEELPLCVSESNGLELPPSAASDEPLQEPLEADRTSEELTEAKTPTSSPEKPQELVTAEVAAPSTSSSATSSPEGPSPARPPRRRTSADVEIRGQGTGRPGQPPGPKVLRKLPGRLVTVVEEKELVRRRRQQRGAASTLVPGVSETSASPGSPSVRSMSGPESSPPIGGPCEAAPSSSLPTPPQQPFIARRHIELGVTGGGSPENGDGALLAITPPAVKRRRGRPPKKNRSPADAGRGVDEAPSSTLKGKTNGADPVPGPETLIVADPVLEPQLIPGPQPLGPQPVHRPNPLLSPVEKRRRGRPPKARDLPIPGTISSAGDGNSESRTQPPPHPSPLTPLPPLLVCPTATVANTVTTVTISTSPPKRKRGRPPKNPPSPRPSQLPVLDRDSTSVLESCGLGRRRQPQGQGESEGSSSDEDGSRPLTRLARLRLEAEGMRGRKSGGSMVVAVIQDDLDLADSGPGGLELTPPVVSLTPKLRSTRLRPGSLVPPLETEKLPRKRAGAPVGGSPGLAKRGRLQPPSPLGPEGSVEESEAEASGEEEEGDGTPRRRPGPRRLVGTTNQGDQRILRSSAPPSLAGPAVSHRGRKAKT
UniProt Q16629: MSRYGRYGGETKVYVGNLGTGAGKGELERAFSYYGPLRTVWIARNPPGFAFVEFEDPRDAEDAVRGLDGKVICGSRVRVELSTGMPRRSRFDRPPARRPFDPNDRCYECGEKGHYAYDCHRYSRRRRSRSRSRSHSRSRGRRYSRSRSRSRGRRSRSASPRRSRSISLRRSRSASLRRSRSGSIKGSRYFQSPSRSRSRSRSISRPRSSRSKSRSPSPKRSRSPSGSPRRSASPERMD
UniProt Q9NZD8: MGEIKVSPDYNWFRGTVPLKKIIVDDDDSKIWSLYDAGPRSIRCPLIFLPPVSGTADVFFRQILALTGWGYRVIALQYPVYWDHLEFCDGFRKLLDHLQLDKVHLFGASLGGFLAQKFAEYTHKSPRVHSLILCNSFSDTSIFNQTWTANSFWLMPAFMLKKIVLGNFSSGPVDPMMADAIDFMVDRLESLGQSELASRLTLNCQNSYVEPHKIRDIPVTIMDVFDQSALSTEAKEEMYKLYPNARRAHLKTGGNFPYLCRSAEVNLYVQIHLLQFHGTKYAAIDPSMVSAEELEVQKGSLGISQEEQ
UniProt Q9BWW4: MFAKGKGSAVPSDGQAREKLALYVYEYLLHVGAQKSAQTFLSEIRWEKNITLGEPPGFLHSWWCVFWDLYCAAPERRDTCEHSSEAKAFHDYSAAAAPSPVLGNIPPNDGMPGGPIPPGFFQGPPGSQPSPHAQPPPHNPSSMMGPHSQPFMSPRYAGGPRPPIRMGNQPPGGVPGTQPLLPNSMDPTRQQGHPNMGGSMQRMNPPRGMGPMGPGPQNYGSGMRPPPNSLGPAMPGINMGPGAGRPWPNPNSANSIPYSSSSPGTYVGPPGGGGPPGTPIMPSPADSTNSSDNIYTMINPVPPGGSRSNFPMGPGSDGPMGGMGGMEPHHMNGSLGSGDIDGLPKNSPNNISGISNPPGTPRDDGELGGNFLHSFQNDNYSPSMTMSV
UniProt P11277, whole entry, looked up: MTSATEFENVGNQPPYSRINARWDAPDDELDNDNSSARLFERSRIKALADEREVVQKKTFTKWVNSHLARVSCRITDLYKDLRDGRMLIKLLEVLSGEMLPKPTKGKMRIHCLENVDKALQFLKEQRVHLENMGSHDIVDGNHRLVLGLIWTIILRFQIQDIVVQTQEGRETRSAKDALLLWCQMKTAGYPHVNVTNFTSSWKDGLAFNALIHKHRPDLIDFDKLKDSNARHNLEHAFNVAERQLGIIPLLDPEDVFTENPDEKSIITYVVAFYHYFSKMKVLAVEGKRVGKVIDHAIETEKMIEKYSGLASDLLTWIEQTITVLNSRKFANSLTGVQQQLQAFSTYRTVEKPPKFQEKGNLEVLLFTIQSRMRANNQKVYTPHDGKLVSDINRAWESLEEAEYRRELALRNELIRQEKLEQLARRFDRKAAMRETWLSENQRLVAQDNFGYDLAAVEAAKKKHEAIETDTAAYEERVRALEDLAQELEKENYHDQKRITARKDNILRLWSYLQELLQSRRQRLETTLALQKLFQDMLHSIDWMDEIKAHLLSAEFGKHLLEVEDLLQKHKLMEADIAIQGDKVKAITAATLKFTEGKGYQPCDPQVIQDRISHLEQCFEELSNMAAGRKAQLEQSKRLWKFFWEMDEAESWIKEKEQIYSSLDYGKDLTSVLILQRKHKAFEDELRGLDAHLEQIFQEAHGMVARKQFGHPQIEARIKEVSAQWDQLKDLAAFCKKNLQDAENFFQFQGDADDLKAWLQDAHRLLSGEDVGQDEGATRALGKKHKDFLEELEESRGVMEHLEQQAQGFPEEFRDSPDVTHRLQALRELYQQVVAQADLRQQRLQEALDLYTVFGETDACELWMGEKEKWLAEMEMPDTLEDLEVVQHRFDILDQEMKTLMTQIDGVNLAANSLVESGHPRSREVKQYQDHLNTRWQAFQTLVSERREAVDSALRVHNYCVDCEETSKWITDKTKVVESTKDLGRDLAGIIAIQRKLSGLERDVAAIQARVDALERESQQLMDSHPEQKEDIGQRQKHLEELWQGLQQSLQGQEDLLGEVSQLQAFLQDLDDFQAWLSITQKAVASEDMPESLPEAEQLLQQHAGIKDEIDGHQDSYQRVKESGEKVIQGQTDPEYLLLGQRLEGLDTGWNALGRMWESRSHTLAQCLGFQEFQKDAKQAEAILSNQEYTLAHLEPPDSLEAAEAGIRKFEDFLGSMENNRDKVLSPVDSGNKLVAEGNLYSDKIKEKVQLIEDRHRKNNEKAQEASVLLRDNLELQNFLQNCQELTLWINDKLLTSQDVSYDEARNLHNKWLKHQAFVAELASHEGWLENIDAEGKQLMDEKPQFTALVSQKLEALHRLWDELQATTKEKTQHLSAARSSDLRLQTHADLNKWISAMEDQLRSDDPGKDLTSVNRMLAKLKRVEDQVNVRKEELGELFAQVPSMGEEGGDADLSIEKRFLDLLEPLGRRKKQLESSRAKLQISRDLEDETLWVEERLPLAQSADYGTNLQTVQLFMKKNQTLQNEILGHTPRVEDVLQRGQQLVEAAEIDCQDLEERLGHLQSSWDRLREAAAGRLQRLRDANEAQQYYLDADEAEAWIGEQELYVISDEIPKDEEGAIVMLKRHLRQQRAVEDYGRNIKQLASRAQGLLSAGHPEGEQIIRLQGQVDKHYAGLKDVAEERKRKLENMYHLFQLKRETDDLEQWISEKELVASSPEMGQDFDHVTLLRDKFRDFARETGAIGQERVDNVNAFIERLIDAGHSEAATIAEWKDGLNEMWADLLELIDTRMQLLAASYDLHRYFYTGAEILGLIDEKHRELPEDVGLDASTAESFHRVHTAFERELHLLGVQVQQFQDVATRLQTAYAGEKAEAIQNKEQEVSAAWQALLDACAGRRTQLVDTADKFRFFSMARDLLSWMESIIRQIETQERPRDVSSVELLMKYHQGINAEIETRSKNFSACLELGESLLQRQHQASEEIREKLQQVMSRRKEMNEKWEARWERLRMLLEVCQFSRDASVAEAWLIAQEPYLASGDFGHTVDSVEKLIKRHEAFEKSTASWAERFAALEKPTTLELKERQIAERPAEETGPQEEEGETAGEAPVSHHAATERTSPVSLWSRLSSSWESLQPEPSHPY

Legend:
Assay in all cases: log2 fold change, soluble protein after heating vs DMSO (PISA); higher = thermal stabilisation; K562 lysate, 10 uM; active = over 0.2 and 3.5 SD of the protein, either way, in both replicates (recomputed)
erlotinib = compound: C#Cc1cccc(Nc2ncnc3cc(OCCOC)c(OCCOC)cc23)c1 [erlotinib]
In short: (§1)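 Dounce homogenisation of K562 pellets in PBS pH 7.4 with 1 mM MgCl2 produced a crude extract, used at 1 mg/mL protein. Exposure to 10 μM compound lasted 30 min, and aliquots were then heated for 3 min across 48°C-58°C, pooled and brought to 0.5% NP-40 at 4°C. The supernatant after 21,000xg for 90 min was quantified by TMTpro 16plex LC-MS/MS with channel sums equalised. Duplicate values are given as log-two fold change in thermal stability relative to solvent controls.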

[1] = compound: C/C(=N\NC(=O)C1=CC(=CC=C1)S(=O)(=O)N2CCOCC2)/C3=C(C=CC(=C3)Cl)O
In short: as §1

[2] = compound: C1=CC(=CC=C1C2=NC3=C(N2)C=C(C=C3)C(=O)N)OC4=CC=C(C=C4)Cl
In short: as §1

[3] = compound: C1=CC2=C(C=CC(=C2)/C=C\3/C(=O)NC(=NCC4=CC=CS4)S3)N=C1
In short: as §1

[4] = compound: C1=CC2=NC=CN=C2C=C1/C=C/3\C(=O)NC(=O)S3
In short: as §1

[5] = compound: C1=CC=C(C=C1)C2=NC(=C(N2)C3=CC=NC=C3)C4=CC(=C(C=C4)Cl)O
In short: as §1

[6] = compound: C1=CC=C2C(=C1)C3=NNC4=CC=CC(=C43)C2=O
In short: as §1

[7] = compound: C1CCN(C1)C(=O)NC2=CC=CC(=C2)NC3=NC=C(C(=N3)NCCC4=CN=CN4)Br
In short: as §1

[8] = compound: C1CN(CCC1(CC2=CC=C(C=C2)Cl)N)C3=NC=NC4=C3C=CN4
In short: as §1

IRAK-1-4 Inhibitor I = compound: C1COCCN1CCN2C3=CC=CC=C3N=C2NC(=O)C4=CC(=CC=C4)[N+](=O)[O-] [IRAK-1-4 Inhibitor I]
In short: as §1

ibrutinib = compound: C=CC(=O)N1CCC[C@@H](n2nc(-c3ccc(Oc4ccccc4)cc3)c3c(N)ncnc32)C1 [ibrutinib]
In short: as §1

[9] = compound: CC(=O)c1cnc2ccc(-c3cc(Cl)c(O)c(Cl)c3)nc2c1N[C@H]1CC[C@H](CN(C)C)CC1
In short: as §1

ralimetinib = compound: CC(C)(C)Cn1c(N)nc2ccc(-c3[nH]c(C(C)(C)C)nc3-c3ccc(F)cc3)nc21 [ralimetinib]
In short: as §1

[10] = compound: CC(C)(O)CC(=O)NCCn1ccc2ncnc(Nc3ccc(Oc4cccc(C(F)(F)F)c4)c(Cl)c3)c21
In short: as §1

[11] = compound: CC(C)C1=C2N=C(C=C(N2N=C1)NCC3=CC=CC=C3)NCCCCCCN
In short: as §1

[12] = compound: CC1=C(C(CC(=O)N1)C2=CC=C(C=C2)C(F)(F)F)C(=O)NC3=C(C=C4C(=C3)C=NN4)F
In short: as §1

[13] = compound: CC1=C(C2=C(C=C1)C(=O)C3=CC=CC=C3N2CCCN)C
In short: as §1

[14] = compound: CC1=C(C=C(C=C1)NC(=O)C2=CC(=CC=C2)C(C)(C)C#N)NC3=CC4=C(C=C3)N=CN(C4=O)C
In short: as §1

[15] = compound: CC1=C(C=C(C=C1)NC(=O)C2=CC(=CC=C2)N(C)C)NC(=O)C3=CC=C(C=C3)O
In short: as §1

[16] = compound: CC1=CC=C(C=C1)SC2=C3C=C(SC3=CN=C2)C(=O)N
In short: as §1

Row | Target | log2 fold change (erlotinib) | log2 fold change [1] | log2 fold change [2] | log2 fold change [3] | log2 fold change [4] | log2 fold change [5] | log2 fold change [6] | log2 fold change [7] | log2 fold change [8] | log2 fold change (IRAK-1-4 Inhibitor I) | log2 fold change (ibrutinib) | log2 fold change [9] | log2 fold change (ralimetinib) | log2 fold change [10] | log2 fold change [11] | log2 fold change [12] | log2 fold change [13] | log2 fold change [14] | log2 fold change [15] | log2 fold change [16]
1 | SSU72 (UniProt Q9NP77) | inactive: -0.067 | inactive: 0.057 | inactive: -0.071 | inactive: -0.064 | inactive: -0.003 | inactive: 0.07 | inactive: 0.005 | inactive: 0.029 | inactive: 0 | inactive: 0.001 | inactive: 0.075 | inactive: 0.031 | inactive: 0.026 | inactive: -0.002 | inactive: 0.038 | inactive: -0.018 | inactive: 0.025 | inactive: 0.001 | inactive: 0.015 | inactive: 0.03
2 | STAMBP (UniProt O95630) | inactive: -0.016 | inactive: -0.005 | inactive: 0.001 | inactive: 0.012 | inactive: -0.007 | inactive: -0.014 | inactive: 0.011 | inactive: 0.019 | inactive: -0.013 | inactive: -0.002 | inactive: 0.033 | inactive: 0.002 | inactive: -0.015 | inactive: -0.004 | inactive: 0.005 | inactive: 0.018 | inactive: -0.026 | inactive: 0 | inactive: 0.022 | inactive: 0.031
3 | SSNA1 (UniProt O43805) | inactive: -0.004 | inactive: -0.04 | inactive: -0.013 | inactive: 0.07 | inactive: -0.036 | inactive: 0.04 | inactive: -0.03 | inactive: -0.002 | inactive: 0.066 | inactive: 0.018 | inactive: 0.187 | inactive: 0.017 | inactive: -0.049 | inactive: 0.012 | inactive: 0.003 | inactive: -0.012 | inactive: -0.026 | inactive: 0.013 | inactive: 0.02 | inactive: -0.024
4 | SRCAP (UniProt Q6ZRS2) | inactive: -0.016 | inactive: 0.054 | inactive: 0.048 | inactive: 0.048 | inactive: -0.023 | inactive: -0.004 | inactive: -0.07 | inactive: 0 | inactive: 0.027 | inactive: -0.015 | inactive: -0.023 | inactive: -0.003 | inactive: 0.078 | inactive: 0.015 | inactive: -0.04 | inactive: 0.051 | inactive: 0.007 | inactive: -0.005 | inactive: 0.017 | inactive: -0.003
5 | SRSF7 (UniProt Q16629) | inactive: 0.019 | inactive: -0.068 | inactive: -0.043 | inactive: 0.002 | inactive: -0.066 | inactive: -0.02 | inactive: -0.016 | inactive: 0.032 | inactive: 0.008 | inactive: -0.03 | inactive: -0.114 | inactive: -0.071 | inactive: 0.074 | inactive: -0.004 | inactive: 0 | inactive: -0.005 | inactive: -0.023 | inactive: -0.037 | inactive: 0.02 | inactive: -0.079
6 | SRPRA (UniProt P08240) | inactive: 0.001 | inactive: -0.055 | inactive: 0.003 | inactive: 0.014 | inactive: -0.013 | inactive: -0.025 | inactive: -0.023 | inactive: -0.028 | inactive: -0.027 | inactive: 0 | inactive: -0.009 | inactive: -0.006 | inactive: -0.007 | inactive: 0.03 | inactive: -0.024 | inactive: 0.016 | inactive: 0.034 | inactive: -0.028 | inactive: 0.007 | inactive: 0.017
7 | STAM2 (UniProt O75886) | inactive: -0.027 | inactive: 0.17 | inactive: 0.002 | inactive: -0.013 | inactive: -0.002 | inactive: 0.045 | inactive: 0.033 | inactive: -0.028 | inactive: 0.006 | inactive: -0.044 | inactive: -0.007 | inactive: -0.007 | inactive: -0.064 | inactive: -0.008 | inactive: -0.006 | inactive: 0.027 | inactive: -0.004 | inactive: -0.012 | inactive: 0.016 | inactive: -0.029
8 | SPG21 (UniProt Q9NZD8) | inactive: 0 | inactive: 0.069 | inactive: 0.009 | inactive: -0.094 | inactive: -0.007 | inactive: 0.01 | inactive: -0.045 | inactive: -0.039 | inactive: 0.01 | inactive: 0.023 | inactive: 0.043 | inactive: 0.052 | inactive: 0.019 | inactive: -0.086 | inactive: -0.029 | inactive: 0.049 | inactive: 0.008 | inactive: -0.141 | inactive: 0.016 | inactive: -0.029
9 | SSB (UniProt P05455) | inactive: -0.008 | inactive: 0.007 | inactive: -0.014 | inactive: -0.025 | inactive: -0.009 | inactive: 0.001 | inactive: -0.015 | inactive: 0.013 | inactive: 0.002 | inactive: -0.011 | inactive: -0.007 | inactive: -0.009 | inactive: -0.005 | inactive: -0.006 | inactive: 0.004 | inactive: -0.015 | inactive: -0.013 | inactive: -0.006 | inactive: 0.007 | inactive: 0.006
10 | SSBP3 (UniProt Q9BWW4) | inactive: 0.038 | inactive: -0.09 | inactive: 0.004 | inactive: 0.026 | inactive: 0.129 | inactive: -0.048 | inactive: 0.018 | inactive: -0.054 | inactive: 0.013 | inactive: 0.041 | active: 0.435 | inactive: -0.024 | inactive: 0 | inactive: -0.038 | inactive: -0.02 | inactive: -0.021 | inactive: -0.018 | inactive: -0.018 | inactive: 0 | inactive: 0.054
11 | SRSF10 (UniProt O75494) | inactive: 0.055 | inactive: 0 | inactive: -0.014 | inactive: -0.091 | inactive: 0.041 | inactive: -0.021 | inactive: 0.027 | inactive: 0.045 | inactive: 0.004 | inactive: -0.015 | inactive: -0.057 | inactive: 0.027 | inactive: 0.032 | inactive: 0.01 | inactive: 0.019 | inactive: -0.029 | inactive: -0.037 | inactive: -0.041 | inactive: 0.018 | inactive: 0.031
12 | SPINDOC (UniProt Q9BUA3) | inactive: -0.011 | inactive: -0.171 | inactive: 0.022 | inactive: -0.153 | inactive: -0.057 | inactive: 0.062 | inactive: -0.046 | inactive: -0.102 | inactive: -0.063 | inactive: 0.033 | inactive: 0.033 | inactive: 0.066 | inactive: 0.003 | inactive: -0.021 | inactive: 0.014 | inactive: -0.024 | inactive: -0.038 | inactive: -0.014 | inactive: 0.031 | inactive: -0.06
13 | SPTB isoform 2 (UniProt P11277) | inactive: 0.023 | inactive: 0.069 | inactive: -0.053 | inactive: 0.02 | inactive: 0.008 | inactive: 0.014 | inactive: -0.034 | inactive: -0.018 | inactive: 0.023 | inactive: 0.01 | inactive: -0.02 | inactive: 0.003 | inactive: 0.021 | inactive: 0.001 | inactive: -0.003 | inactive: 0.007 | inactive: -0.016 | inactive: 0.018 | inactive: 0.043 | inactive: -0.012
14 | SRSF4 (UniProt Q08170) | inactive: -0.019 | inactive: -0.027 | inactive: -0.03 | inactive: 0.002 | inactive: 0.006 | inactive: -0.023 | inactive: 0.071 | inactive: 0.035 | inactive: -0.063 | inactive: -0.028 | inactive: 0.018 | inactive: 0.005 | inactive: 0.02 | inactive: 0.01 | inactive: -0.011 | inactive: -0.023 | inactive: 0.015 | inactive: -0.039 | inactive: -0.001 | inactive: 0.007
15 | SPECC1 (UniProt Q5M775) | inactive: -0.05 | inactive: -0.013 | inactive: 0.051 | inactive: -0.024 | inactive: -0.089 | inactive: -0.013 | inactive: -0.005 | inactive: -0.152 | inactive: 0.01 | inactive: -0.022 | inactive: -0.051 | inactive: -0.024 | inactive: 0.051 | inactive: -0.018 | inactive: 0.042 | inactive: 0.036 | inactive: 0.02 | inactive: 0.001 | inactive: -0.013 | inactive: -0.008
16 | SRI (UniProt P30626) | inactive: 0.017 | inactive: -0.039 | inactive: -0.047 | inactive: 0.05 | inactive: -0.009 | inactive: -0.021 | inactive: -0.046 | inactive: -0.029 | inactive: 0.096 | inactive: -0.057 | inactive: -0.031 | inactive: -0.023 | inactive: 0.015 | inactive: -0.024 | inactive: -0.047 | inactive: -0.071 | inactive: 0 | inactive: 0.039 | inactive: -0.014 | inactive: 0.062

Rewritten in CSV form: entries from further up
Row,Target,log2 fold change (erlotinib),log2 fold change [1],log2 fold change [2],log2 fold change [3],log2 fold change [4],log2 fold change [5],log2 fold change [6],log2 fold change [7],log2 fold change [8],log2 fold change (IRAK-1-4 Inhibitor I),log2 fold change (ibrutinib),log2 fold change [9],log2 fold change (ralimetinib),log2 fold change [10],log2 fold change [11],log2 fold change [12],log2 fold change [13],log2 fold change [14],log2 fold change [15],log2 fold change [16]
2,STAMBP (UniProt O95630),inactive: -0.016,inactive: -0.005,inactive: 0.001,inactive: 0.012,inactive: -0.007,inactive: -0.014,inactive: 0.011,inactive: 0.019,inactive: -0.013,inactive: -0.002,inactive: 0.033,inactive: 0.002,inactive: -0.015,inactive: -0.004,inactive: 0.005,inactive: 0.018,inactive: -0.026,inactive: 0,inactive: 0.022,inactive: 0.031
9,SSB (UniProt P05455),inactive: -0.008,inactive: 0.007,inactive: -0.014,inactive: -0.025,inactive: -0.009,inactive: 0.001,inactive: -0.015,inactive: 0.013,inactive: 0.002,inactive: -0.011,inactive: -0.007,inactive: -0.009,inactive: -0.005,inactive: -0.006,inactive: 0.004,inactive: -0.015,inactive: -0.013,inactive: -0.006,inactive: 0.007,inactive: 0.006
12,SPINDOC (UniProt Q9BUA3),inactive: -0.011,inactive: -0.171,inactive: 0.022,inactive: -0.153,inactive: -0.057,inactive: 0.062,inactive: -0.046,inactive: -0.102,inactive: -0.063,inactive: 0.033,inactive: 0.033,inactive: 0.066,inactive: 0.003,inactive: -0.021,inactive: 0.014,inactive: -0.024,inactive: -0.038,inactive: -0.014,inactive: 0.031,inactive: -0.06
15,SPECC1 (UniProt Q5M775),inactive: -0.05,inactive: -0.013,inactive: 0.051,inactive: -0.024,inactive: -0.089,inactive: -0.013,inactive: -0.005,inactive: -0.152,inactive: 0.01,inactive: -0.022,inactive: -0.051,inactive: -0.024,inactive: 0.051,inactive: -0.018,inactive: 0.042,inactive: 0.036,inactive: 0.02,inactive: 0.001,inactive: -0.013,inactive: -0.008
